Source: the ROBIN nucleic acid binder screens (doi:10.1002/anie.202211358).

Targets (5′ to 3′):
SAM-II: SAM-II riboswitch RNA pseudoknot, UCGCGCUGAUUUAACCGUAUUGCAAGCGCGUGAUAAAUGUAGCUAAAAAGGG. Hit rate about 1% of about 21,000 compounds.
PreQ1: PreQ1 riboswitch RNA pseudoknot, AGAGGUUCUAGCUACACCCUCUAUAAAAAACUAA. From B. subtilis. Hit rate about 0.7% of about 24,000 compounds.
TPP: TPP riboswitch RNA three-way junction, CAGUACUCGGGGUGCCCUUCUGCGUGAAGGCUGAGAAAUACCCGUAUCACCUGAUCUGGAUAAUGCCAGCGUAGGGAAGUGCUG. Hit rate about 0.7% of about 24,000 compounds.

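Each compound is printed as two spots on a slide made to bind it covalently, so it has no test concentration; the read-out is fluorescence of the bound, labelled oligonucleotide. For the PreQ1, TPP and SAM-II riboswitches the laboratory earlier reported (doi:10.1038/s41467-019-09493-3) 1 µM RNA, 2 h, and a rule that included a mean Z-score above 3 (spot signal-to-noise against the whole library), a score well above that on a control array, and duplicate spots agreeing (coefficient of variation under 100). The data file gives only the calls; its cut-offs may differ, and compounds hitting several targets are kept. These are primary screening calls, not affinities; a compound without a hit may have attached poorly or may still bind in solution.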
“hit” means called a hit, “none” means screened and not called a hit.
Compounds were drawn at random from those tested, without regard to their results.
A dash means that no call is listed here.

compound	SAM-II	PreQ1	TPP
OCCn1nc(-c2ccco2)nc1CCc1ccc2c(c1)OCO2	none	none	none
CCNc1nc(Oc2ccc(=O)n(C)n2)nc(N(C)C)n1	none	none	none
CC1CO/C(=C2\C(=O)OCC2C)C1 (stereo not drawn)	none	none	none
COc1cccc(CNc2nc3c(C)cccc3cc2-c2noc(C)n2)c1	-	none	none
N#Cc1c(-c2ccccc2Cl)c(C#N)c2nc3ccccc3n2c1N	none	none	none
O=C1c2cccc3cccc(c23)C(=O)N1CCNCCO	none	none	none
Cc1nc2cnc3ccc(C#Cc4cccnc4)cc3c2n1-c1ccc(C(C)(C)C#N)cc1	none	none	none
CC(C)c1ccc2oc(-c3cccc(N)c3)nc2c1	none	none	none
CN(C(=O)c1cccs1)c1ccccc1C(=O)N[C@@H]1C[C@@H](CO)N(C)C1	none	none	none
Cc1nc(N)nc(N2CCC2)c1CCC(=O)O	none	none	none
Cc1ccc(NC(=O)Cn2nnc(C(=O)Nc3cccc(C)c3C)c2N)c(C)c1	none	none	none
Cc1sc2ncnc(Nc3ccc(Cl)cc3)c2c1C	none	none	none
Clc1nnc2c3ccccc3ccn12	none	none	none
Cc1ccccc1C1C(C#N)=C(N)Oc2c1c(=O)oc1ccccc21 (stereo not drawn)	none	none	none
CCOc1ccc(NC2OC(=O)c3c2ccc(OC)c3OC)cc1 (stereo not drawn)	none	none	none
CN(C)c1ccc(C(=O)NC(C)(C)c2nnc(N)s2)cn1	none	none	none
CCn1c(SCC(O)Cn2c3ccccc3c3ccccc32)nnc1-c1ccc(OC)cc1 (stereo not drawn)	none	none	none
COc1ccccc1-c1nc2c(c(=S)[nH]1)Cc1c(CO)cnc(C)c1O2	none	none	none
Oc1ccc(Nc2ccnc3cc(Cl)ccc23)cc1	none	none	none
Cc1cc(NCc2cccnc2)n2nc(C(F)(F)F)c(-c3ccc(Cl)cc3)c2n1	-	none	none

2 of the entries, repeated:

| compound | SAM-II | PreQ1 | TPP |
|---|---|---|---|
| `Cc1ccccc1C1C(C#N)=C(N)Oc2c1c(=O)oc1ccccc21` (stereo not drawn) | none | none | none |
| `O=C1c2cccc3cccc(c23)C(=O)N1CCNCCO` | none | none | none |